Results deposited as PubChem BioAssay AID1259254 (NCATS, 2017).

Purpose: 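Gene knock-downs that lead to re-replication, shown by excess G2 DNA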 (primary screen)
Cell system: human HCT116 colorectal cancer cells
Reagent: single siRNA against human genes
Timing: 3 days
Read-out: 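Imaged Hoechst DNA stain sorts each cell into a cycle phase by DNA amount; per plate, G2 fraction set to 0% for non-targeting and 100% for GMNN siRNA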
Reading the numbers: G2 robust z-score: higher = more G2 cells, more excess DNA replication
Hit rule: 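Active siRNAs have a G2 robust z of 5 or more median absolute deviations over the median, which in these data means about 38% or higher of GMNN control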
This is an unselected part of about 59,000 reagents. About 1,550 of them (2.6%) count as active. 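G2 share is only a proxy for re-replication; each gene was hit by three separate siRNAs, and active genes were retested.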 Reagents against one gene are numbered here. Further read-outs or replicates are left out here. Not stated in the record: the amount of reagent.

How did the screen score IFNW1 (GeneID 3467) #1?
G2 robust z-score: 3.92; Call: inactive

With IFNW1 (GeneID 3467) #2, what does the deposit list?
G2 robust z-score: -0.455; Call: inactive

For IFNW1 (GeneID 3467) #3, what was measured?
G2 robust z-score: -0.241; Call: inactive

For C6 (GeneID 729) #1, what does the deposit list?
G2 robust z-score: 2.38; Call: inactive

With C6 (GeneID 729) #2, how do the results read?
G2 robust z-score: 0.525; Call: inactive

How did the screen score C6 (GeneID 729) #3?
G2 robust z-score: 3.71; Call: inactive

How did the screen score MASTL (GeneID 84930) #1?
G2 robust z-score: 3.41; Call: inactive

With MASTL (GeneID 84930) #2, what does the deposit list?
G2 robust z-score: 2.1; Call: inactive

Which result is listed for MASTL (GeneID 84930) #3?
G2 robust z-score: 1.01; Call: inactive

With CCZ1B (GeneID 221960) #1, how do the results read?
G2 robust z-score: -0.84; Call: inactive

For CCZ1B (GeneID 221960) #2, what was measured?
G2 robust z-score: -0.12; Call: inactive

What is on record for CCZ1B (GeneID 221960) #3?
G2 robust z-score: 0.292; Call: inactive

What did the screen give for KIAA0586 (GeneID 9786) #1?
G2 robust z-score: -0.355; Call: inactive

With KIAA0586 (GeneID 9786) #2, what does the deposit list?
G2 robust z-score: 0.384; Call: inactive

For KIAA0586 (GeneID 9786) #3, what does the deposit list?
G2 robust z-score: -0.0347; Call: inactive

With ATR (GeneID 545) #1, how do the results read?
G2 robust z-score: -0.167; Call: inactive

What did the screen give for ATR (GeneID 545) #2?
G2 robust z-score: 0.179; Call: inactive

What did the screen give for ATR (GeneID 545) #3?
G2 robust z-score: 0.258; Call: inactive

With SSX3 (GeneID 10214) #1, how do the results read?
G2 robust z-score: 0.28; Call: inactive

For SSX3 (GeneID 10214) #2, what was measured?
G2 robust z-score: -0.401; Call: inactive

What is on record for SSX3 (GeneID 10214) #3?
G2 robust z-score: -1.02; Call: inactive

For ZIC1 (GeneID 7545) #1, what does the deposit list?
G2 robust z-score: -0.323; Call: inactive

With ZIC1 (GeneID 7545) #2, what does the deposit list?
G2 robust z-score: -0.424; Call: inactive

What did the screen give for ZIC1 (GeneID 7545) #3?
G2 robust z-score: 1.08; Call: inactive

Ordered by “G2 robust z-score” (high to low): some entries from above.
MASTL (GeneID 84930) #1 | G2 robust z-score: 3.41; Call: inactive
MASTL (GeneID 84930) #2 | G2 robust z-score: 2.1; Call: inactive
MASTL (GeneID 84930) #3 | G2 robust z-score: 1.01; Call: inactive
CCZ1B (GeneID 221960) #1 | G2 robust z-score: -0.84; Call: inactive
